What was measured:
[1] = system: R. ferrugineus 4th larvae; assay: Topical application (contact insecticide) to fourth instar larvae; type: in vivo, Rhynchophorus ferrugineus; details: value ± standard error
Description: (§1) Cells were suspended in the methanolic extract at serially increasing concentrations for 40 days. To dilute the compounds, TritonX-100 (0.1%) was added to acetone after the chemicals were dissolved. Adults or larvae of R. ferrugineus were purchased. They were then cultured using long lengths of sugar cane stem. The extracts’ anti-larvae action was assessed by applying topically to larvae and keeping them at 4–5 °C for 5 min. Utilizing a manually controlled micro-applicator, each larva had extract injected into its dorsum in three separate 10 µL doses using a 50-ll micro-syringe from Hertfordshire, UK’s Burkard Manufacturing Co., Ltd. (MS-N50; Shizuoka, Japan’s Ito Corp.). Five larvae in a box with three replications were fed on portions of long sugarcane stem measuring 10 cm. […] The sugarcane stem’s ten-centimeter-long portions cut into equal longitudinal halves were used to measure the antifeedant activity against adults. Long sections of sugarcane stem with a surface area of approximately 32.2 cm^2 were dried in air at room temperature, assuming a dipping time of 10 s and an initial serial concentration of (10 mL). Each treated object remained in a plastic container. Each box included an additional pair (male and female). Each therapy was administered ten times. In total, 24-, 48-, 72-, and 96-h feeding observations were assessed.
(§2) Statistics and probit analysis were performed using SPSS 25.0, as mentioned by Finney. To sum up, all numerical predictions of toxicity variables and findings were presented as the mean ± SE. We regressed mortality and translated the resulting dosage to an LC50 value (µg/mL). […] Enzyme activity data were analyzed using an ANOVA. Means were separated using the SNK (Student–Newman–Keuls) test, and deviations at the p ˂ 0.05 level were considered noteworthy.

[2] = system: R. ferrugineus adults; type: in vivo; details: value ± standard error
Description: as §1, §2

SMILES	Slope (probit), 4th larvae [1]	Slope (probit), adult [2]
CC12CCC(CC1)C(C)(C)O2 [1,8-cineole]	1.36 ± 0.18	2.69 ± 0.19
C=C/C(C)=C/CC=C(C)C [(E)-β-ocimene]	1.12 ± 0.13	2.12 ± 0.23
C=CCc1ccc(OC)cc1 [estragole]	1.08 ± 0.12	2.04 ± 0.22
C=CCc1ccc(O)c(OC)c1 [eugenol]	1.34 ± 0.19	2.66 ± 0.20
C=C1/C=C/[C@H](C(C)C)CC/C(C)=C/CC1 [germacrene D]	1.20 ± 0.17	2.48 ± 0.22
C=CC(C)(O)CCC=C(C)C (centres unmarked) [linalool]	1.37 ± 0.18	2.71 ± 0.20
CC(C)=CCC/C(C)=C\CO [nerol]	1.31 ± 0.18	2.51 ± 0.22
C=C(C)C1CCC(C)C2=C(C1)C(C)CC2 (stereo not drawn) [α-guaiene]	1.24 ± 0.17	2.62 ± 0.21
C=C1CCC2CC1C2(C)CCC=C(C)C (stereo not drawn) [β-bergamotene]	1.28 ± 0.16	2.76 ± 0.21
C=C1CC/C=C(\C)CC[C@@H]2[C@@H]1CC2(C)C [β-caryophyllene]	1.22 ± 0.17	2.60 ± 0.21
C=CC(=C)CCC=C(C)CCC=C(C)C [β-farnesene]	1.26 ± 0.17	2.73 ± 0.20
C=C(C)C1CCC(C)(O)CC1 (stereo not drawn) [β-terpineol]	1.04 ± 0.11	1.94 ± 0.23
CC1=CCC(C(C)C)=CC1 [γ-terpinene]	1.07 ± 0.14	1.97 ± 0.22
